These are yes or no findings as the source states them, for the method shown. Binding can be weak; no strength is given. Where a sequence is shown, tags or fusion partners need not be part of it.

The target in the experiment is T1, SlNRC1^NB-ARC (NB-ARC domain of tomato NRC1), untagged (tomato (Solanum lycopersicum)) (UniProt A1X877).
T1 sequence: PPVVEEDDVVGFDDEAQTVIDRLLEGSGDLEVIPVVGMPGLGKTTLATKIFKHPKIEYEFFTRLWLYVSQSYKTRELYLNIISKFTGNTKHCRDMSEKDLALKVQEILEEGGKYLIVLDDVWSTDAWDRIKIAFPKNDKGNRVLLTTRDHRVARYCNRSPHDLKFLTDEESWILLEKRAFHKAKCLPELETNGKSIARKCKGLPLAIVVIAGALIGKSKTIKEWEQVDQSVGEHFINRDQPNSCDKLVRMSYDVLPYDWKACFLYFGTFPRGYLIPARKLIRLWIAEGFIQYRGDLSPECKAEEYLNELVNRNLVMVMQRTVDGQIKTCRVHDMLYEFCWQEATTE
Description: crystal structure; X-ray, 4.5 Å; complex formed from the two purified proteins in a 1:1 molar ratio and gel-filtered; crystals in 0.1 M MES pH 6.5, 10% PEG-8000, 20% ethylene glycol, 18°C; space group P6_1, two copies of each component in the asymmetric unit; both purified.

Take “Recombinant SS15 protein (lacking signal peptide), untagged (Globodera rostochiensis)”: the binding result is “binds”.
